According to PubChem BioAssay AID493014 (National Center for Advancing Translational Sciences (NCATS), 2011):
Among all 340,000 compounds or so, about 170 (0.05%) were called active. Inconclusive results, whose numbers are uncertain, are shown with a selection of clear calls. Calls come from the whole dose curve; as a rule, active = well fitted inhibition curve with a large enough effect in the signal ratio, with a control signal flat (not every such curve was filed as active); inconclusive = small, poorly fitted or top-dose-only effect, or effect the other way, or a change in a side signal; inactive = flat fitted curve, though single readings scatter; the % refers to the signal ratio. Potencies of inconclusive entries are doubtful fits and often do not repeat.

assay: qHTS Assay to Find Inhibitors of Chronic Active B-Cell Receptor Signaling; conditions: ABC-DLBCL IkBa-CBG/CBR reporter, luminescence ratio (green luciferase fused to IkBa over red control in TMD8 lymphoma cells), 4 h; activity change, negative = inhibition: at 46.1 µM (top of the series);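 for activity change, negative = inhibition: plate controls were basal doxycycline-induced cells for no effect and cells given 10 µM MG132 for full effect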
In short: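 TMD8 human ABC-DLBCL cells with doxycycline-inducible IκBα–green luciferase fusion and unfused red luciferase, in 0.5% FBS medium; compounds up to 46 uM, 4 h at 37C. Green/red luminescence ratio, filter-overlap corrected, fitted to concentration-response curves.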
Potency is the fitted concentration of half-maximal effect.

Structure (SMILES)	activity change, negative = inhibition	Potency
Cn1c(=O)oc2cc(NC(=O)CCl)ccc21	inactive	
CC(=O)c1cccc(NC(=O)c2cc3nc(C)cc(C)n3n2)c1	inconclusive: -1.01%	
CCOC(=O)C1CCN(C2=C(NS(=O)(=O)c3ccc(Cl)cc3)C(=O)c3ccccc3C2=O)CC1	inactive	
COc1ccc(NC(=O)CN2CCN(c3nc(-c4ccc(F)cc4)cs3)CC2)c(OC)c1	inconclusive: 10.6%	
O=C(c1c[nH]c(C(=O)C(Cl)(Cl)Cl)c1)c1ccc(F)cc1F		inconclusive: 22.4 µM [falling, single point]
CNC(=O)[C@H]1O[C@@H](n2cnc3c(NCc4cccc(I)c4)nc(Cl)nc32)[C@H](O)[C@@H]1O		inconclusive: 18.4 µM [falling, partial curve]
O=C(c1ccccc1Br)N(Cc1ccccc1)c1ccccc1	inactive	
CCOC(=O)c1c(NC(=O)C2C3CCC(O3)C2C(=O)O)sc2c1CCCC2 (stereo not given)	inconclusive: 20.9%	
O=[N+]([O-])c1ccc(N2CCN(S(=O)(=O)c3ccc4ccccc4c3)CC2)cc1NCC1CCCO1 (stereo not given)		inconclusive: 23.1 µM [falling, partial curve, poor fit]
CN(CCOc1ccc(Cl)cc1)CC(=O)Nc1ccc(OC(F)F)cc1		inconclusive: 28.2 µM [falling, single point]
COc1cc(Br)cc(C=Nc2cccc(C(F)(F)F)c2)c1O	inconclusive: 11.1%	
COc1ccccc1CNC(=O)CNCCc1ccc(OC)c(OC)c1	inconclusive: 2.1%	
Cc1cc(/C=N/NC(N)=S)c(C)n1-c1cccc(Cl)c1	inactive	
CC1Cc2nc(SCC(=O)N3CCCc4ccccc43)n(C)c(=O)c2S1 (stereo not given)		inconclusive: 3.66 µM [rising, full curve]
NNS(=O)(=O)c1ccc(Cc2ncc(C(F)(F)F)cc2Cl)s1	inconclusive: 4.88%	
Cc1ccc(S(=O)(=O)Nc2cnn(-c3ccccc3)c(=O)c2Cl)cc1		inconclusive: 5.01 µM [falling, full curve, poor fit]
COc1ccc(Br)c(C(=O)Nc2ccc(F)cc2)c1		inconclusive: 35.5 µM [falling, single point]
O=C(O)c1ccc(NC(=S)NC2CCCCC2)cc1		inconclusive: 20.6 µM [falling, partial curve]
O=C1c2cccc3cccc(c23)C(=O)N1CCN1CCN(CC(O)COc2ccc3ccccc3c2)CC1 (stereo not given)	inconclusive: 1.94%	
Fc1ccc(/C=N/Nc2nccnc2Cl)cc1	inactive	

Structure (SMILES)	activity change, negative = inhibition	Potency
CC(C)C[C@H]1CN=C(Nc2ccccc2)N1CCC1CCCC1		inconclusive: 7.94 µM [falling, partial curve, poor fit]
Cc1noc(C)c1C(=O)OCC(=O)Nc1ccccc1SCC#N	inconclusive: -18.2%	
CCOC(=O)c1c(NC(=O)Cc2cccs2)sc(C(=O)NC2CCCCC2)c1C	inactive	
O=C(N/N=C/c1ccccc1)c1n[nH]c2c1CCCC2	inconclusive: 264%	
CC1CN(CC(=O)Nc2ccccc2Sc2ccccc2)CC(C)O1 (stereo not given)	inactive	
COc1ccc(OC)c(S(=O)(=O)N2CCC3(CC2)OCCN3S(=O)(=O)c2cccs2)c1	inconclusive: -0.763%	
O=S1(=O)N=C(SCCO)c2ccccc21	inconclusive: 0.164%	
CCOC(=O)N/N=C\c1ccc([N+](=O)[O-])o1	inactive	
Cc1cccc(-c2nc3c4ccccc4n(CC(=O)Nc4cccc(F)c4)c(=O)n3n2)c1		inconclusive: 35.5 µM [rising, single point]
CCCOc1ccc(N2C(=O)C3C(C(C)C)NC4(C(=O)c5ccccc5C4=O)C3C2=O)cc1 (stereo not given)	inconclusive: 29.5%	
COc1cccc2cc(CC(=O)c3cc(C)ccc3C)c(=O)oc12		inconclusive: 12.6 µM [falling, partial curve]
N#CC1=C(O)CCCn2c1nc1ccccc1c2=O		inconclusive: 35.5 µM [falling, single point]
CC(C)S(=O)(=O)c1csc(NC(=O)Nc2ccc(Cl)cc2)c1	inconclusive: 29.7%	
O=C(Nc1cc(Cl)ccc1-n1cncn1)c1cc(F)c(F)c(F)c1F	inconclusive: 11.5%	
O=C(c1ccco1)N1CCN(S(=O)(=O)c2ccccc2[N+](=O)[O-])CC1	inconclusive: -1.37%	
COc1cccc(C(=O)NCCS(=O)(=O)NCc2ccc3c(c2)OCO3)c1		inconclusive: 20.6 µM [falling, single point]
O=S(=O)(Nc1ccc2c(c1)nc1n2CCOC1)c1ccc(Cl)cc1	inactive	
COc1c(Br)cc2c(C)c(C(=O)N3CCOCC3)oc2c1Br	inconclusive: -0.587%	
CN(CCC1CCCCO1)C(=O)CCc1nnc(CCc2ccccc2)o1 (stereo not given)	inconclusive: -0.187%	
Cc1cc2nc(CSc3ccc(Cl)cc3)cc(=O)n2[nH]1	inconclusive: -22.8%	

Part of the list above, set out differently.
Structure (SMILES) | activity change, negative = inhibition | Potency
Cc1noc(C)c1C(=O)OCC(=O)Nc1ccccc1SCC#N | inconclusive: -18.2% | 
CCOC(=O)c1c(NC(=O)Cc2cccs2)sc(C(=O)NC2CCCCC2)c1C | inactive | 
